# Measured values as given in patent US20240238301A1, “COMPOSITIONS AND METHODS FOR REDUCED TOXICITY IN TRANSPLANTATION USING JANUS KINASE (JAK) INHIBITORS” (THE REGENTS OF THE UNIVERSITY OF COLORADO, A BODY CORPORATE, priority 2021, published 2024).
# At least one compound was matched to its structure with a doubt left.
# How the values were obtained:
# [1] = test system: recipient and donor NK and T cells (mouse spleen cells); test: Effect on recipient versus donor NK and T cells in spleen after BMT (FACS); type: in vivo, mice; details: Day +1 and Day +3 post-BMT, RIC TBI
# Protocol: In another exemplary method, BMTs were performed and assessed to determine the effects of JAK inhibitors on recipient compared to donor NK and T cells as outlined in FIG. 6. In this exemplary method, BMTs were performed in mice as described in Example 1 wherein C57BL/6 mice were the transplant donors while Balb/cJ mice served as stem cell recipients. Recipient mice were treated with Ruxolitinib and given RIC TBI followed by BMT as previously described in the examples herein. On Day +1 and Day +3 post-BMT, a portion of the recipient mice were euthanized, and their spleens were harvested. The spleen cells were prepared into a single cell suspension, subjected to RBC lysis, stained (using previously referenced markers in addition to T-cell subset markers, CD4 and CD8) and analyzed by FACS as described in the examples herein.
# [2] = test system: C57BL/6 recipients Balb/cJ donors; test: Allogeneic BMT with de-escalated TBI and ruxolitinib-impregnated chow, degree of donor cell engraftment; type: in vivo, mice; details: 2 or 4 Gy TBI; chow 2 g ruxolitinib per kg, Day -5 thru Day +28 (34 days); 4 to 12 weeks post-BMT
smiles,measurement,setting,value
N#CC[C@H](C1CCCC1)n1cc(-c2ncnc3[nH]ccc23)cn1 [ruxolitinib],total recipient NK+ cells,[1]; Balb/cJ recipients (FIG. 7A),statistically significant decrease
same,recipient CD3+ T cells,[1]; Balb/cJ recipients (FIG. 7B),statistically significant decrease
same,recipient CD4+ T cell subset,[1]; Balb/cJ recipients (FIG. 7C),decreased
same,recipient CD8+ T cell subset,[1]; Balb/cJ recipients (FIG. 7D),decreased
same,degree of donor cell engraftment (chimerism),[2],stable donor:recipient mixed chimerism
